Measurements: publication PMC7819943, “Rice protein-binding microarrays: a tool to detect cis-acting elements near promoter regions in rice”
The other results are listed elsewhere or left out.

Molecular target: T1, OsSMF1 (Oryza sativa, UniProt Q6ZLB0 1-436)
T1 sequence: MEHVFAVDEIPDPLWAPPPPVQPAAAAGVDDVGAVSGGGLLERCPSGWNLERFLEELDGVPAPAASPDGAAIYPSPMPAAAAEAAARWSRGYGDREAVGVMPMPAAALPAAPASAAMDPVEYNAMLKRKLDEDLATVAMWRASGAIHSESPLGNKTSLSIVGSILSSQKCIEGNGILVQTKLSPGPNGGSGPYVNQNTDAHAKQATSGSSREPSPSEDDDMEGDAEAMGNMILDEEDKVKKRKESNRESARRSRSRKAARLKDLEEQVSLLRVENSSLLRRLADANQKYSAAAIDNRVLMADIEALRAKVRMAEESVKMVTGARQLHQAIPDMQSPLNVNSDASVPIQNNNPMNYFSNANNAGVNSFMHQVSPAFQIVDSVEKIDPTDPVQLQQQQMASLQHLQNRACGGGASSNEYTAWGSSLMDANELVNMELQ
Experiment: protein-binding microarray (RPBM); PBS, 2% BSA, 51.3 ng/ul salmon testes DNA, 50 uM zinc acetate, 200 nM TF, 25 C, 1 h; high values mean tight binding
Conditions: protein: recombinant; tags: N-terminal polyhistidine and DsRed monomer fusion (pET32a); chain copies: 2; label: CyDye5-dUTP incorporated in the synthesized complementary strand; 3' TTTTT single-stranded linker to array surface; dsDNA, one strand shown
In short: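 Binding signal is reported as fluorescence intensity per feature (arbitrary units) from an Axon 4000B scanner. Incubation used 200 nM of each Ni–NTA-purified, N-terminally polyhistidine- and DsRed-fused transcription factor from E. coli BL21-CodonPlus on a double-stranded custom Agilent array for 1 h at 25 °C, with 50 µM zinc acetate in the buffer, followed by washing.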

In order of rising binding signal:
1. ATCTGAGTCAGAATGGGCCTAATGGAGAGATGGGCTGTACCGGAGTCACCTAGTGCAG  3140 fluorescence intensity (a.u.)
2. TCGATCGACATGGTGAATTGGCGATCGGGTTGGCTCGGCTCGGAGTCACCTAGTGCAG  3170 fluorescence intensity (a.u.)
3. AGTGATTAATTACACTGAGCTGGAAGCTAGCCTTGACCTGCGGAGTCACCTAGTGCAG  3200 fluorescence intensity (a.u.)
4. CTCCGTCGTTCGCGTGCATGCGTGAGGTGCTCCTCCTCGGCGGAGTCACCTAGTGCAG  3340 fluorescence intensity (a.u.)
5. CATAATTTTAGGTATCGCTAGGATTTAATTTACACTGTAGCGGAGTCACCTAGTGCAG  3370 fluorescence intensity (a.u.)
6. CACCTGCTGCTTGAGGTCGTGACGCGCGCGCGTCAGATAGCGGAGTCACCTAGTGCAG  3380 fluorescence intensity (a.u.)
7. AGACGACGGACTAGTGCGTGCGTGCGTGACGCGAGAGGCTCGGAGTCACCTAGTGCAG  3430 fluorescence intensity (a.u.)
8. TAAACATAGTTTACGTGTAGACCTTTTATGTTTGTATTCTCGGAGTCACCTAGTGCAG  3480 fluorescence intensity (a.u.)
9. TATTGCCTACTGGTGTTCGAATGAGTAGGATGGGATGTGCCGGAGTCACCTAGTGCAG  3500 fluorescence intensity (a.u.)
10. CGGCTAGATCTACGCCGGCGAAATCGCCGTGGCGGCGAAACGGAGTCACCTAGTGCAG  3580 fluorescence intensity (a.u.)
11. AGCCTGCCCAATCCCAGTTCGTCGTCATCTTCAGAGCGAGCGGAGTCACCTAGTGCAG  3580 fluorescence intensity (a.u.)
12. AGATTTGTGCTCTGACCCACTTCACTCACTTAGTCTCTAGCGGAGTCACCTAGTGCAG  3630 fluorescence intensity (a.u.)
13. CTGATGCAACTTAAGTGGGCCCATCTAGAAAATGTGGCCCCGGAGTCACCTAGTGCAG  3650 fluorescence intensity (a.u.)
14. CTGATCTTCCTTAACCAATACACACACATCGACACGCTGTCGGAGTCACCTAGTGCAG  3710 fluorescence intensity (a.u.)
15. AACGTGGAACGGTGGAAGCAATCGGCGGACGCCACGGTGGCGGAGTCACCTAGTGCAG  3910 fluorescence intensity (a.u.)
16. AGCAGTGGCATTGCAAATCTGTCACCGAAGCTGTCAATAGCGGAGTCACCTAGTGCAG  3920 fluorescence intensity (a.u.)
17. CCTCCTCCGCGCTCGCCGGAGACAGCCACATCACAGCACACGGAGTCACCTAGTGCAG  4060 fluorescence intensity (a.u.)
18. GCCGCTCCCTGCCTCCGCGTGTCGTCGTCGCCCAGCTGCACGGAGTCACCTAGTGCAG  4240 fluorescence intensity (a.u.)
19. ATGTAATTATCATTTATTTTATTATGACTTGATTCGTCATCGGAGTCACCTAGTGCAG  4250 fluorescence intensity (a.u.)
20. TTCGCCGCCGGCGTCATCCTCGCCACGGCGTTCGTGCACACGGAGTCACCTAGTGCAG  4340 fluorescence intensity (a.u.)
21. TTGCACACTCTGCTTAGAGGGTGCCGTGGCGTTCCTCCACCGGAGTCACCTAGTGCAG  4350 fluorescence intensity (a.u.)
22. GCATATAACTTTCACGAGACAAACGTGAAATATCCGTATCCGGAGTCACCTAGTGCAG  4390 fluorescence intensity (a.u.)
23. TTCCTCCCCACGCCACGCCACCGAGGAGTAGCCACTCGCCCGGAGTCACCTAGTGCAG  4860 fluorescence intensity (a.u.)
24. GACGGCACGTAGGGTGGGGTGGGTCTGTGCTGATGCATGTCGGAGTCACCTAGTGCAG  5050 fluorescence intensity (a.u.)
25. CTAGTGGTGGTTCCTGTGTCTAGTCTGCACATGTAGAGATCGGAGTCACCTAGTGCAG  5900 fluorescence intensity (a.u.)
26. GGCCGTCTCGTCCTCTCTCCACATCATCCCCGTTCCCTCGCGGAGTCACCTAGTGCAG  6650 fluorescence intensity (a.u.)
27. GAGATGACACAGCCTAACATGTGGGTCCCACGCTGACTCACGGAGTCACCTAGTGCAG  6720 fluorescence intensity (a.u.)
28. ATGAAATATATATCTAACATCAAAATAACACGTGGCGTGCCGGAGTCACCTAGTGCAG  11000 fluorescence intensity (a.u.)
29. TTGGTGACTGTTCATGTGTGATGTGTCGTGTCTTACGTGTCGGAGTCACCTAGTGCAG  11400 fluorescence intensity (a.u.)
30. GGGAGAGGAGGGGAGAGGGTGGTGACGTGGCCAGCTGACACGGAGTCACCTAGTGCAG  15700 fluorescence intensity (a.u.)
31. TATTTCCTGGGCAGAAACTAGTGCAGGTTTGGCCATAATCCGGAGTCACCTAGTGCAG  21000 fluorescence intensity (a.u.)
32. ATTTTCCACGTCATCATGGTGCGGGAGACACGTGTCCACACGGAGTCACCTAGTGCAG  24000 fluorescence intensity (a.u.)
33. TAGTAATAATAGATCTCAGGCAAGAGTACTACAGCTGATTCGGAGTCACCTAGTGCAG  27100 fluorescence intensity (a.u.)
34. AACACAACATGCTGTCAGGGCTACAAATGTTGAGAGTCTCCGGAGTCACCTAGTGCAG  28900 fluorescence intensity (a.u.)
35. TGAGTGAAACACATAGTAAATAGTAAAGTTACACGGTCCACGGAGTCACCTAGTGCAG  29000 fluorescence intensity (a.u.)
36. GATGGCTATCTGCCCGGGCAAAGTGTACCCTTTTACTGTTCGGAGTCACCTAGTGCAG  30800 fluorescence intensity (a.u.)
37. CAAACAAGGACCGTAGACACTCTAACCAACCCCAATAACACGGAGTCACCTAGTGCAG  31300 fluorescence intensity (a.u.)
38. TCGAATCGGGAAACCTAACGGCGAGCGGCGCCTCCACCTCCGGAGTCACCTAGTGCAG  31300 fluorescence intensity (a.u.)
39. CACCTACGCAGGTGAGGTGTCCCGCCACGTCACCTGCCGCCGGAGTCACCTAGTGCAG  34300 fluorescence intensity (a.u.)
40. ATACAAGCTTCTTTTATTTTCCCCTTTTCTTATCCCAGAACGGAGTCACCTAGTGCAG  36700 fluorescence intensity (a.u.)
41. GAACGGGACCAGCTACTATAGTGAAATTTAGATTTCAAAGCGGAGTCACCTAGTGCAG  42200 fluorescence intensity (a.u.)
42. TCGCCACCGCCACGTCATCTCCCCACCCTCCTCCTCTTCCCGGAGTCACCTAGTGCAG  44700 fluorescence intensity (a.u.)
